No constants are given. Whether binding was seen depends on the method and setting. In cells and extracts the contact can be indirect. Some binding calls cover weakened binding; strength is not graded here.
Target: Flag-labeled XLF (UniProt Q9H9Q4)
Assay: co-IP; Flag-XLF or Flag-UHRF1 overexpressed in HeLa cells for 48 h, after DNA damage; whole-cell lysate with BenzoNuclease; IP with anti-Flag antibody, Western blot of the endogenous partner; NP-40 lysis buffer (20 mM Tris-HCl pH 8.0, 137 mM NaCl, 10% glycerol, 1% NP-40), beads at 4 °C for 10 to 12 h

Amino acid sequences for entries named in this document (tags omitted).
UniProt Q9H9Q4: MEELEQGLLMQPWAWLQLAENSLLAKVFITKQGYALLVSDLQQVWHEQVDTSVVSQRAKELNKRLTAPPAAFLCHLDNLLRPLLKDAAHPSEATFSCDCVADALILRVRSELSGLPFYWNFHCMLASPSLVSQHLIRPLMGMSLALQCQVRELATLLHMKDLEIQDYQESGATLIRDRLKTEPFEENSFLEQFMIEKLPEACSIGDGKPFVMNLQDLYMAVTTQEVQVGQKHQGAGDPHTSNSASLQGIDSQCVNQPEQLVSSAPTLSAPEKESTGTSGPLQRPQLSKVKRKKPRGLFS

B1: endogenous UHRF1 (Ubiquitin-like with PHD and Ring Finger domains 1) (protein, UniProt Q96T88 1-793)
chain: MWIQVRTMDGRQTHTVDSLSRLTKVEELRRKIQELFHVEPGLQRLFYRGKQMEDGHTLFDYEVRLNDTIQLLVRQSLVLPHSTKERDSELSDTDSGCCLGQSESDKSSTHGEAAAETDSRPADEDMWDETELGLYKVNEYVDARDTNMGAWFEAQVVRVTRKAPSRDEPCSSTSRPALEEDVIYHVKYDDYPENGVVQMNSRDVRARARTIIKWQDLEVGQVVMLNYNPDNPKERGFWYDAEISRKRETRTARELYANVVLGDDSLNDCRIIFVDEVFKIERPGEGSPMVDNPMRRKSGPSCKHCKDDVNRLCRVCACHLCGGRQDPDKQLMCDECDMAFHIYCLDPPLSSVPSEDEWYCPECRNDASEVVLAGERLRESKKKAKMASATSSSQRDWGKGMACVGRTKECTIVPSNHYGPIPGIPVGTMWRFRVQVSESGVHRPHVAGIHGRSNDGAYSLVLAGGYEDDVDHGNFFTYTGSGGRDLSGNKRTAEQSCDQKLTNTNRALALNCFAPINDQEGAEAKDWRSGKPVRVVRNVKGGKNSKYAPAEGNRYDGIYKVVKYWPEKGKSGFLVWRYLLRRDDDEPGPWTKEGKDRIKKLGLTMQYPEGYLEALANREREKENSKREEEEQQEGGFASPRTGKGKWKRKSAGGGPSRAGSPRRTSKKTKVEPYSLTAQQSSLIREDKSNAKLWNEVLASLKDRPASGSPFQLFLSKVEETFQCICCQELVFRPITTVCQHNVCKDCLDRSFRAQVFSCPACRYDLGRSYAMQVNQPLQTVLNQLFPGYGNGR
- binding: binds
